Results taken from paper PMC4392246, “Structure of a BAG6 (Bcl-2-associated Athanogene 6)-Ubl4a (Ubiquitin-like Protein 4a) Complex Reveals a Novel Binding Interface That Functions in Tail-anchored Protein Biogenesis*” (The Journal of Biological Chemistry, 2015).
Results are given in words; binding and its absence hold for the method and conditions named. Where a sequence is shown, tags or fusion partners need not be part of it.

Sequences of proteins named here, by UniProt entry; tags and fusion partners are left off. Residues count along the entry.
UniProt O95817, residues 421-498: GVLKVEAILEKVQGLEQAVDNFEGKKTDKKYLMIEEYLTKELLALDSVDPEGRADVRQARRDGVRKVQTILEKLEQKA

What was measured:
Experiment in all cases: pull-down; GST-tagged BAG or BAGS domains on glutathione-Sepharose beads, washed with buffer B, mixed with purified Ubl4a proteins in vitro; immunoblot; both purified
[1] = molecular target: T1, GST-tagged BAG domain of BAG1 (Homo sapiens) (UniProt Q99933)
T1 sequence: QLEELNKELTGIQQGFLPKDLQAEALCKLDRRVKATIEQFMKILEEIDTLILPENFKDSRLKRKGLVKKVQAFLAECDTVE

[2] = molecular target: T2, GST-tagged BAG domain of BAG2 (Homo sapiens) (UniProt O95816)
T2 sequence: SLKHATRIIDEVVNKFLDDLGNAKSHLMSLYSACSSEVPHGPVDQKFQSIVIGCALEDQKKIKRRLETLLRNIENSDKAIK

[3] = molecular target: GST-tagged BAG domain of BAG3 (Homo sapiens) (UniProt O95817)
[4] = molecular target: T3, GST-tagged BAG domain of BAG4 (Homo sapiens) (UniProt O95429)
T3 sequence: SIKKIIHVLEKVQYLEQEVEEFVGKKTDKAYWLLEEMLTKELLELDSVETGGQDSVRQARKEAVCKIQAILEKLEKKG

[5] = molecular target: T4, GST-tagged full-length BAG1 (Homo sapiens) (UniProt Q99933)
T4 sequence: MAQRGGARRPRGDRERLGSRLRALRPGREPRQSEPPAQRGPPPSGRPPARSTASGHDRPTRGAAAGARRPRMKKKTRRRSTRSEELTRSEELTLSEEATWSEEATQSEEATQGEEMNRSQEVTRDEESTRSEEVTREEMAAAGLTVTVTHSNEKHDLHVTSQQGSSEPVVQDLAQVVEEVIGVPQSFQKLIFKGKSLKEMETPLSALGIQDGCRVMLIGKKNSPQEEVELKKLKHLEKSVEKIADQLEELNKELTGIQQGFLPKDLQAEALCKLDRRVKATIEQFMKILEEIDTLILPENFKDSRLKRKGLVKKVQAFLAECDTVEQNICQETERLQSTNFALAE

- binding [1]: no binding
- binding [2]: no binding
- binding [3]: no binding
- binding [4]: no binding
- binding [5]: no binding
B1: recombinant FLAG-tagged Ubl4a (full-length) (protein, UniProt P11441 1-157)
chain: MQLTVKALQGRECSLQVPEDELVSTLKQLVSEKLNVPVRQQRLLFKGKALADGKRLSDYSIGPNSKLNLVVKPLEKVLLEEGEAQRLADSPPPQVWQLISKVLARHFSAADASRVLEQLQRDYERSLSRLTLDDIERLASRFLHPEVTETMEKGFSK
